{"sequences": {"note": "Sequences of proteins named here, by UniProt entry; tags and fusion partners are left off. Residues count along the entry.", "UniProt P60903": "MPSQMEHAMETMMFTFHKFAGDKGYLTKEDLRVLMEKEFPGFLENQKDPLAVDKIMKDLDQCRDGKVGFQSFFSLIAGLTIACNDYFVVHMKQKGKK", "UniProt Q13751, residues 18-1172": "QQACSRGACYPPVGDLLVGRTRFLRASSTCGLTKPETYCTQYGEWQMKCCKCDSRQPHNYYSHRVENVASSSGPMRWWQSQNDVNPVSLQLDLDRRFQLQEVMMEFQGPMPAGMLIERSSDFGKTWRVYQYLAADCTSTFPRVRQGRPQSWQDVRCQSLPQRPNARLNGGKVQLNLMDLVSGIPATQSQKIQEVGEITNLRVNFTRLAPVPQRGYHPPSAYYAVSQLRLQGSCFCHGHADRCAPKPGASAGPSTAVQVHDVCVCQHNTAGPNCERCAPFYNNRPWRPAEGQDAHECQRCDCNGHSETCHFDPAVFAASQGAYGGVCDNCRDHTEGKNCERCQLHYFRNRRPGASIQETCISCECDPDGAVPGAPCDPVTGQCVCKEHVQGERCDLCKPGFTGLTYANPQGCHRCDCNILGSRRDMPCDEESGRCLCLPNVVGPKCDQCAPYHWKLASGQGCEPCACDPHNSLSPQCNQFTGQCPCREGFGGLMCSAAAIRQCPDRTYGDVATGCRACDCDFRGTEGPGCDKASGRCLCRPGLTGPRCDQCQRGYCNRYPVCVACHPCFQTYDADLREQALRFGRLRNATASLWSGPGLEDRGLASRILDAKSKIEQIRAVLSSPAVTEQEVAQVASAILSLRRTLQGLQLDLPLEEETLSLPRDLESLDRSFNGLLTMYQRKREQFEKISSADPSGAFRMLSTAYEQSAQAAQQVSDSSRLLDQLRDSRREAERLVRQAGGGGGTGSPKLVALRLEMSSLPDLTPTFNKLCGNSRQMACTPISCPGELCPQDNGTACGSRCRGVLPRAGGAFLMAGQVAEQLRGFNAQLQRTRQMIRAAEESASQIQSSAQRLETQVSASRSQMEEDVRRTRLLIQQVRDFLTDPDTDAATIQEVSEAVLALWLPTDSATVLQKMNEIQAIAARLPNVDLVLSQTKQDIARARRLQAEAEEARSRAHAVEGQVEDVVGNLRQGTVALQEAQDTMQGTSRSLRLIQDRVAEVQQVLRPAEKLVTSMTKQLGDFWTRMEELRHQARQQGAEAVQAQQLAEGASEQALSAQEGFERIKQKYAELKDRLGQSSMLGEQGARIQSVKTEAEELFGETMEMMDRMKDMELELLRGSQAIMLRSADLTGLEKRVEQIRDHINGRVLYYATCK"}, "source": "paper PMC9818352", "molecules": {"B1": {"name": "LAMC2, endogenous in PDAC cell lines (protein, UniProt Q13753 22-1193)", "chain": "TSRREVCDCNGKSRQCIFDRELHRQTGNGFRCLNCNDNTDGIHCEKCKNGFYRHRERDRCLPCNCNSKGSLSARCDNSGRCSCKPGVTGARCDRCLPGFHMLTDAGCTQDQRLLDSKCDCDPAGIAGPCDAGRCVCKPAVTGERCDRCRSGYYNLDGGNPEGCTQCFCYGHSASCRSSAEYSVHKITSTFHQDVDGWKAVQRNGSPAKLQWSQRHQDVFSSAQRLDPVYFVAPAKFLGNQQVSYGQSLSFDYRVDRGGRHPSAHDVILEGAGLRITAPLMPLGKTLPCGLTKTYTFRLNEHPSNNWSPQLSYFEYRRLLRNLTALRIRATYGEYSTGYIDNVTLISARPVSGAPAPWVEQCICPVGYKGQFCQDCASGYKRDSARLGPFGTCIPCNCQGGGACDPDTGDCYSGDENPDIECADCPIGFYNDPHDPRSCKPCPCHNGFSCSVMPETEEVVCNNCPPGVTGARCELCADGYFGDPFGEHGPVRPCQPCQCNNNVDPSASGNCDRLTGRCLKCIHNTAGIYCDQCKAGYFGDPLAPNPADKCRACNCNPMGSEPVGCRSDGTCVCKPGFGGPNCEHGAFSCPACYNQVKIQMDQFMQQLQRMEALISKAQGGDGVVPDTELEGRMQQAEQALQDILRDAQISEGASRSLGLQLAKVRSQENSYQSRLDDLKMTVERVRALGSQYQNRVRDTHRLITQMQLSLAESEASLGNTNIPASDHYVGPNGFKSLAQEATRLAESHVESASNMEQLTRETEDYSKQALSLVRKALHEGVGSGSGSPDGAVVQGLVEKLEKTKSLAQQLTREATQAEIEADRSYQHSLRLLDSVSRLQGVSDQSFQVEEAKRIKQKADSLSSLVTRHMDEFKRTQKNLGNWKEEAQQLLQNGKSGREKSDQLLSRANLAKSRAQEALSMGNATFYEVESILKNLREFDLQVDNRKAEAEEAMKRLSYISQKVSDASDKTQQAERALGSAAADAQRAKNGAGEALEISSEIEQEIGSLNLEANVTADGALAMEKGLASLKSEMREVEGELERKELEFDTNMDAVQMVITEAQKVDTRAKNAGVTIQDTLNTLDGLLHLMDQPLSVDEEGLVLLEQKLSRAKTQINSQLRPMMSELEERARQQRGHLHLLETSIDGILADVKNLENIRDNLPPGCYNTQALEQQ"}}, "key": {"[1]": {"biological_target": "S100A10 over-expressed from a plasmid containing full-length S100A10 cDNA (pS100A10) (human) (UniProt P60903)", "assay": "co-IP; PDAC cell lines transfected with plasmids (2.5 ng/uL) for 72 h; 500 ug lysate (IP lysis buffer, diluted in 1x PBS) with 5 ug mouse anti-FLAG monoclonal antibody and Protein A+G magnetic beads, 4 °C, 24 h; washed 3 times with cold PBS; western blotting"}, "[2]": {"biological_target": "LAMB3 over-expressed from a plasmid containing full-length LAMB3 cDNA (pLAMB3), Flag-tagged (human) (UniProt Q13751)", "assay": "co-IP; PDAC cell lines transfected with plasmids (2.5 ng/uL) for 72 h; 500 ug lysate (IP lysis buffer, diluted in 1x PBS) with 5 ug mouse anti-FLAG monoclonal antibody and Protein A+G magnetic beads, 4 °C, 24 h; washed 3 times with cold PBS; western blotting"}, "[3]": {"biological_target": "LAMB3, endogenous in PDAC cell lines (human (endogenous in PANC-1 and AsPC-1)) (UniProt Q13751)", "assay": "co-IP; endogenous proteins; 500 ug total protein of PANC-1 or AsPC-1 cells with 1 ug rabbit anti-LAMB3 polyclonal antibody and 20 uL Protein A+G magnetic beads, 4 °C, 24 h; western blotting"}}, "note": "These are yes or no findings as the source states them, for the method shown. In cells and extracts the contact can be indirect. Some binding calls cover weakened binding; strength is not graded here.", "data": [{"molecule": "LAMB3, endogenous in PDAC cell lines (from UniProt Q13751 18-1172)", "values": [{"measurement": "binding", "setting": "[1]", "value": "no binding"}]}, {"molecule": "S100A10, endogenous in PDAC cell lines (from UniProt P60903 1-97)", "values": [{"measurement": "binding", "setting": "[2]", "value": "no binding"}]}, {"molecule": "B1", "values": [{"measurement": "binding", "setting": "[3]", "value": "binds"}]}]}
